Taken from: PubChem BioAssay AID1053208 (Peter MacCallum Cancer Centre, 2014)

Assay: 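Genes whose silencing cuts survival of bone tumour cells only with doxorubicin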 (primary screen)
Cell system: mouse osteosarcoma cells, early-passage culture from an engineered mouse model of fibroblastic bone tumour
Reagents: siRNA pool against mouse genes, 40 nM
Duration: about 120 h (48 h before drug, then 72 h with drug)
Conditions: doxorubicin 100 nM for 72 h, roughly 30-40% inhibitory dose
Read-out: 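Viability read as ATP luminescence after 72 h of 100 nM doxorubicin or none, duplicate wells averaged, scaled to non-targeting siRNA, then expressed as robust z-scores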
Direction: viability z-score with doxorubicin: higher = more viable cells under doxorubicin; viability z-score without drug: higher = more viable cells with knock-down alone
Call rule: 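Called active if knock-down leaves viability unchanged without drug (z within -2 to 2) but lowers it with doxorubicin (z at or under -2)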
The deposit covers about 17,000 reagents; this is a part drawn at random. Of all reagents, 788 (4.7%) were called active. 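Calls rest on z-score classes alone; an extra cut-off of viability at most 70% of control was not applied to them.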 Some reagents were tested in more than one well and are listed for each. Not all columns of the deposit are shown. No sequences are given here.

{"gene": "Tmem223", "combined z-score class": "high cell count with doxorubicin only", "viability z-score with doxorubicin": 2.59, "viability z-score without drug": 0.84, "call": "inactive"}
{"gene": "Ppie", "combined z-score class": "low cell count with and without drug", "viability z-score with doxorubicin": -2.02, "viability z-score without drug": -2.19, "call": "inactive"}
{"gene": "Fam98b", "combined z-score class": "no change with or without drug", "viability z-score with doxorubicin": 1.35, "viability z-score without drug": 0.51, "call": "inactive"}
{"gene": "Stx7", "combined z-score class": "no change with or without drug", "viability z-score with doxorubicin": 1.24, "viability z-score without drug": 0.51, "call": "inactive"}
{"gene": "Ddx19b", "combined z-score class": "low cell count with doxorubicin only", "viability z-score with doxorubicin": -2.25, "viability z-score without drug": -0.84, "call": "active"}
{"gene": "Gypa", "combined z-score class": "no change with or without drug", "viability z-score with doxorubicin": -0.22, "viability z-score without drug": 0.17, "call": "inactive"}
{"gene": "Myd88", "combined z-score class": "no change with or without drug", "viability z-score with doxorubicin": 0.67, "viability z-score without drug": -0.17, "call": "inactive"}
{"gene": "Fam110b", "combined z-score class": "no change with or without drug", "viability z-score with doxorubicin": 0.45, "viability z-score without drug": 1.18, "call": "inactive"}
{"gene": "Eftud2", "combined z-score class": "low cell count with and without drug", "viability z-score with doxorubicin": -6.74, "viability z-score without drug": -4.55, "call": "inactive"}
{"gene": "Slc38a10", "combined z-score class": "no change with or without drug", "viability z-score with doxorubicin": -1.12, "viability z-score without drug": 0.34, "call": "inactive"}
{"gene": "Gbe1", "combined z-score class": "no change with or without drug", "viability z-score with doxorubicin": -0.22, "viability z-score without drug": 0.17, "call": "inactive"}
{"gene": "Rabggtb", "combined z-score class": "no change with or without drug", "viability z-score with doxorubicin": 0.34, "viability z-score without drug": -0.84, "call": "inactive"}
{"gene": "Arl15", "combined z-score class": "no change with or without drug", "viability z-score with doxorubicin": -0.67, "viability z-score without drug": 0.51, "call": "inactive"}
{"gene": "Stac3", "combined z-score class": "no change with or without drug", "viability z-score with doxorubicin": -1.35, "viability z-score without drug": -1.35, "call": "inactive"}
{"gene": "Dqx1", "combined z-score class": "no change with or without drug", "viability z-score with doxorubicin": 0.45, "viability z-score without drug": 0.67, "call": "inactive"}
{"gene": "Med18", "combined z-score class": "no change with or without drug", "viability z-score with doxorubicin": 1.46, "viability z-score without drug": 1.18, "call": "inactive"}
{"gene": "Clec12a", "combined z-score class": "low cell count with doxorubicin only", "viability z-score with doxorubicin": -2.25, "viability z-score without drug": -1.18, "call": "active"}

Next part (2 carried over from the part before).
{"gene": "Med18", "combined z-score class": "no change with or without drug", "viability z-score with doxorubicin": 1.46, "viability z-score without drug": 1.18, "call": "inactive"}
{"gene": "Clec12a", "combined z-score class": "low cell count with doxorubicin only", "viability z-score with doxorubicin": -2.25, "viability z-score without drug": -1.18, "call": "active"}
{"gene": "Grk2", "combined z-score class": "no change with or without drug", "viability z-score with doxorubicin": 0, "viability z-score without drug": -0.67, "call": "inactive"}
{"gene": "Grk2", "combined z-score class": "no change with or without drug", "viability z-score with doxorubicin": -0.11, "viability z-score without drug": -1.18, "call": "inactive"}
{"gene": "Syn3", "combined z-score class": "no change with or without drug", "viability z-score with doxorubicin": -0.45, "viability z-score without drug": -0.17, "call": "inactive"}
{"gene": "Rrp15", "combined z-score class": "no change with or without drug", "viability z-score with doxorubicin": 0.56, "viability z-score without drug": -0.17, "call": "inactive"}
{"gene": "Prss8", "combined z-score class": "no change with or without drug", "viability z-score with doxorubicin": 0.22, "viability z-score without drug": 1.52, "call": "inactive"}
{"gene": "Pea15a", "combined z-score class": "no change with or without drug", "viability z-score with doxorubicin": -0.9, "viability z-score without drug": -0.17, "call": "inactive"}
{"gene": "Or51b6b", "combined z-score class": "no change with or without drug", "viability z-score with doxorubicin": -0.56, "viability z-score without drug": -0.51, "call": "inactive"}
{"gene": "Nfasc", "combined z-score class": "no change with or without drug", "viability z-score with doxorubicin": 1.01, "viability z-score without drug": 0.84, "call": "inactive"}
{"gene": "Vstm2l", "combined z-score class": "no change with or without drug", "viability z-score with doxorubicin": 0.45, "viability z-score without drug": -0.84, "call": "inactive"}
{"gene": "Rnft1", "combined z-score class": "no change with or without drug", "viability z-score with doxorubicin": -0.67, "viability z-score without drug": -0.17, "call": "inactive"}
{"gene": "Zfp639", "combined z-score class": "no change with or without drug", "viability z-score with doxorubicin": 0.34, "viability z-score without drug": 0.51, "call": "inactive"}
